Some entries share one result that the patent states for a list of compounds.
Tested on: Norway spruce zygotic embryos
Test: Norway spruce initiation on solid media #56 with ABA, brassinolide or elevated pressure, ten weeks
Assay type: cell-based
Settings: relative to control on media #56
Description: Explants were zygotic embryos flipped out of the megagametophyte, prepared as in Example 1. The experiment consisted of five replications, with a replication consisting of ten explants in a single petri dish. Explants were cultured on solid media #56 (Table 3). Treatment #1 consisted of explants on media #56. In Treatment #2, the medium additionally contained 1 ppm ABA. In Treatment #3, the media contained […] brassinolide. In Treatment #4, the explants were cultured under 1.5 atmospheres of pressure. After ten weeks, the explants were examined and the frequency of embryogenic culture initiation was scored (Table 43).

Row | Structure (SMILES) | increase of initiation, % of the control frequency
1 | CC1=CC(=O)CC(C)(C)C1(O)/C=C/C(C)=C\C(=O)O (centres unmarked) [ABA, 5-(1-hydroxy-2,6,6,-trimethyl-4-oxo-2-cyclohexen-1-yl)-3-methyl-2,4-penta dienoic acid] | over 30%
2 | CC(C)[C@H](C)[C@@H](O)[C@H](O)[C@@H](C)[C@H]1CC[C@H]2[C@@H]3COC(=O)[C@H]4C[C@H](O)[C@H](O)C[C@]4(C)[C@H]3CC[C@]12C [brassinolide] | over 30%

From patent US6492174B1, “Methods of initiating embryogenic cultures in plants” (Institute of Paper Science & Technology, priority 2000, dated 2002)
